PubChem BioAssay AID192 (DTP/NCI, 2004)
The list shows only some results of the screen, not a fair sample: it is rich in T/C values a quarter to a half above the control, in often repeated tests (any T/C) and in doses without a T/C. Further doses and runs are listed elsewhere. T/C: endpoint of the treated group in % of that of the vehicle group. Some entries give survivors of the animals treated and no T/C: the source holds a T/C of zero for them, seemingly a mark for toxic or unscored doses. Some doses without a T/C left all or most animals alive at the check, yet need not have been tolerated: the source hardly ever lists a survival T/C far under the control, and the zero likely stands for such cases as well. Counts of survivors are from the toxicity check (mostly the fifth day) where no day follows; animals may have died later. Schedule codes are those of the source, read here as Q, the interval in days (D) or hours (H), X, the number of doses. Brackets with × give the number of equal values in this list. Some entries hold several experiments; the values are given in rising order. Where survival is the endpoint, the PubChem record calls one and a half times the control and up active, and a quarter to a half above the control has no call in these data; cut-offs in other NCI protocols can differ. Some T/C values are followed by the survivors on the day toxicity was checked, most often the fifth; without a count, all were alive then.

Test system: BDF1 mice, B16 melanoma ip, median survival T/C
Test: NCI In Vivo Anticancer Drug Screen. Data for tumor model B16 Melanoma (intraperitoneal) in B6D2F1 (BDF1) mice
Settings: T/C endpoint: median survival time, higher T/C = longer survival
Method in brief: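 Mice with transplantable tumors; drug vs vehicle groups; endpoint survival or tumor size; value = T/C.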

[1] = dose: 32.0 mg/kg/injection, schedule: Q01DX009 (ip), vehicle: saline with Tween-80
[2] = dose: 512.0 mg/kg/injection, schedule: Q04DX003 (ip), vehicle: saline with Tween-80
[3] = dose: 50.0 mg/kg/injection, schedule: Q01DX009 (ip), vehicle: saline with Tween-80
[4] = dose: 100.0 mg/kg/injection, schedule: Q01DX009 (ip), vehicle: saline with Tween-80
[5] = dose: 200.0 mg/kg/injection, schedule: Q01DX009 (ip), vehicle: saline with Tween-80

With `CC(CN1CC(=O)NC(=O)C1)N1CC(=O)NC(=O)C1` (centres undefined) the T/C (dose: 4.0 mg/kg/injection, schedule: Q03HX024 (ip), vehicle: saline) was 136 % of control, the survivor count (dose: 8.0 mg/kg/injection, schedule: Q03HX024 (ip), vehicle: saline) was 9 of 10 and the T/C (dose: 15.0 mg/kg/injection, schedule: Q01DX009 (oral), vehicle: saline) was 131 % of control. The T/C (dose: 16.0 mg/kg/injection, schedule: Q01DX009 (ip), vehicle: Klucel (hydroxypropylcellulose) (HPC)) was 125 % of control, the survivor count (dose: 16.0 mg/kg/injection, schedule: Q01DX009 (ip), vehicle: saline with Tween-80) was 8 of 10 and the T/C (dose: 16.0 mg/kg/injection, schedule: Q01DX009 (ip), vehicle: saline) was 128 % of control. The survivor count (dose: 16.0 mg/kg/injection, schedule: Q03HX024 (ip), vehicle: saline) was 10 of 10, the T/C [1] was 136 % of control and the survivor count [1] was 9 of 10. The T/C (dose: 32.0 mg/kg/injection, schedule: Q01DX009 (ip), vehicle: saline) was 136 % of control, the survivor count (dose: 32.0 mg/kg/injection, schedule: Q03HX024 (ip), vehicle: saline) was 10 of 10 and the survivor count (dose: 60.0 mg/kg/injection, schedule: Q01DX009 (ip), vehicle: saline) was 5 of 6. The survivor count (dose: 60.0 mg/kg/injection, schedule: Q01DX009 (oral), vehicle: saline) was 6 of 6, the survivor count (dose: 64.0 mg/kg/injection, schedule: Q01DX009 (ip), vehicle: saline with Tween-80) was 8 of 10, 9 of 10, 10 of 10 and the T/C (dose: 64.0 mg/kg/injection, schedule: Q01DX009 (ip), vehicle: saline) was 131 % of control. The survivor count (dose: 64.0 mg/kg/injection, schedule: Q03HX024 (ip), vehicle: saline) was 7 of 10, the survivor count (dose: 120.0 mg/kg/injection, schedule: Q01DX009 (oral), vehicle: saline) was 6 of 6 and the survivor count (dose: 128.0 mg/kg/injection, schedule: Q01DX009 (ip), vehicle: saline with Tween-80) was 9 of 10 and 10 of 10. For the same compound, the T/C (dose: 128.0 mg/kg/injection, schedule: Q01DX009 (ip), vehicle: saline) was 139 % of control, the survivor count (dose: 128.0 mg/kg/injection, schedule: Q03HX024 (ip), vehicle: saline) was 7 of 10 and the T/C (dose: 128.0 mg/kg/injection, schedule: Q04DX003 (ip), vehicle: saline with Tween-80) was 126 % of control. For the same compound, the survivor count (dose: 240.0 mg/kg/injection, schedule: Q01DX009 (ip), vehicle: saline with Tween-80) was 10 of 10, the survivor count (dose: 240.0 mg/kg/injection, schedule: Q01DX009 (oral), vehicle: saline) was 6 of 6 and the survivor count (dose: 256.0 mg/kg/injection, schedule: Q01DX009 (ip), vehicle: Klucel (hydroxypropylcellulose) (HPC)) was 10 of 10. The survivor count (dose: 256.0 mg/kg/injection, schedule: Q01DX009 (ip), vehicle: saline with Tween-80) was 8 of 10, the T/C (dose: 256.0 mg/kg/injection, schedule: Q04DX003 (ip), vehicle: saline with Tween-80) was 135 and 141 % of control and the T/C (dose: 256.0 mg/kg/injection, schedule: Q04DX003 (ip), vehicle: saline) was 147 % of control. For the same compound, the T/C (dose: 400.0 mg/kg/injection, schedule: Q04DX003 (ip), vehicle: Klucel (hydroxypropylcellulose) (HPC)) was 127 % of control, the survivor count (dose: 512.0 mg/kg/injection, schedule: Q01DX009 (ip), vehicle: Klucel (hydroxypropylcellulose) (HPC)) was 8 of 10 and the T/C [2] was 132 % of control. For the same compound, the survivor count [2] was 9 of 10, the survivor count (dose: 512.0 mg/kg/injection, schedule: Q04DX003 (ip), vehicle: saline) was 6 of 10 and the survivor count (dose: 800.0 mg/kg/injection, schedule: Q04DX003 (ip), vehicle: Klucel (hydroxypropylcellulose) (HPC)) was 10 of 10. The survivor count (dose: 1024.0 mg/kg/injection, schedule: Q04DX003 (ip), vehicle: saline with Tween-80) was 8 of 10 and the survivor count (dose: 1024.0 mg/kg/injection, schedule: Q04DX003 (ip), vehicle: saline) was 3 of 10.

With `O=CC(NC(=O)N(CCF)N=O)C(O)C(O)C(O)CO` (centres undefined) the T/C (dose: 6.25 mg/kg/injection, schedule: Q01DX001 (ip), vehicle: saline) was 125 % of control and the T/C (dose: 12.5 mg/kg/injection, schedule: Q01DX001 (ip), vehicle: saline) was 143 % of control.

With `COc1ccc(CC2C(=O)NC(C)C(=O)N(C)C3C(=O)N(C)C(Cc4ccc(O)c(c4)Oc4ccc(cc4)C3O)C(=O)NC(C)C(=O)NC(C)C(=O)N2C)cc1` (centres undefined) the T/C (dose: 0.12 mg/kg/injection, schedule: Q01DX009 (ip), vehicle: saline with Tween-80) was 140 % of control, the T/C (dose: 0.25 mg/kg/injection, schedule: Q01DX009 (ip), vehicle: saline with Tween-80) was 147 % of control [9 of 10 alive] and the T/C (dose: 1.0 mg/kg/injection, schedule: Q01DX009 (ip), vehicle: saline with Tween-80) was 147 % of control [9 of 10 alive]. For the same compound, the survivor count (dose: 2.0 mg/kg/injection, schedule: Q01DX009 (ip), vehicle: saline with Tween-80) was 9 of 10, the survivor count (dose: 4.0 mg/kg/injection, schedule: Q01DX009 (ip), vehicle: saline with Tween-80) was 2 of 10 and the T/C (dose: 250.0 micrograms/kg/injection, schedule: Q01DX009 (ip), vehicle: saline with Tween-80) was 141 % of control. The T/C (dose: 500.0 micrograms/kg/injection, schedule: Q01DX009 (ip), vehicle: saline with Tween-80) was 147 % of control, the T/C (dose: 1000.0 micrograms/kg/injection, schedule: Q01DX009 (ip), vehicle: saline with Tween-80) was 149 % of control and the T/C (dose: 2000.0 micrograms/kg/injection, schedule: Q01DX009 (ip), vehicle: saline with Tween-80) was 144 % of control. The survivor count (dose: 4000.0 micrograms/kg/injection, schedule: Q01DX009 (ip), vehicle: saline with Tween-80) was 7 of 10.

In the case of `CCC(CC)COC(=O)c1ccccc1C(=O)OCC(CC)CC`, the survivor count (dose: 25.0 mg/kg/injection, schedule: Q01DX009 (ip), vehicle: saline with Tween-80) is reported as 10 of 10, the survivor count [3] is reported as 9 of 10 and the survivor count [4] is reported as 9 of 10 and 10 of 10. For the same compound, the survivor count [5] was 10 of 10 (2×) and the survivor count (dose: 400.0 mg/kg/injection, schedule: Q01DX009 (ip), vehicle: saline with Tween-80) was 10 of 10 (2×).

`Cc1cccc(OCC(=O)O)c1` was tested, and the survivor count [3] was 10 of 10, the survivor count [4] was 10 of 10 and the survivor count [5] was 9 of 10.

With `O=[N+]([O-])c1ccc2c(N=Nc3ccc4ccccc4c3O)c(O)cc(S(=O)(=O)O)c2c1` the survivor count (dose: 150.0 mg/kg/injection, schedule: Q01DX009 (ip), vehicle: Klucel (hydroxypropylcellulose) (HPC)) was 10 of 10.

In the case of `CC1C2CCC3C(O)C2(CC(O)C2(O)C1CC(O)C2(C)C)CC3(C)O` (centres undefined), the survivor count (dose: 1.0 mg/kg/injection, schedule: Q01DX009 (ip), vehicle: Klucel (hydroxypropylcellulose) (HPC)) is reported as 6 of 10.

With `BrC1c2cccc3cccc(c23)C1Br` (centres undefined) the survivor count [4] was 10 of 10 and the survivor count [5] was 10 of 10.
